Test results taken from PubChem BioAssay AID2685 (National Center for Advancing Translational Sciences (NCATS), 2010).
This is one part of the list. These are further read-outs of the screen, such as a control signal, another cell line or another target. No call is given for them. Compounds called inactive in the main read-out are mostly missing here. Words in brackets tell the shape of the fitted curve; partial curves, single points and poor fits give uncertain potencies.

Experiment: qHTS Assay for Lipid Storage Modulators in Drosophila S3 Cells;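 as to cell number change: cells counted by Cell Tracker Red CMTPX staining in the red channel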
Conditions: BODIPY lipid droplet fluorescence, 18-24 h; for cell number change: measured here: cell count max response, cells fed with added oleic acid
Method in brief: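 Laser-scanning cytometry quantifies lipid droplet accumulation (500–530 nm total intensity; droplet/cell object ratio) in oleic acid-fed (400 uM added) Drosophila S3 cells treated with a concentration series. 20 uM Triacsin C defined 100% inhibition.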

[1] = measured here: cell number channel AC50, cells fed with added oleic acid
[2] = measured here: lipid fluorescence (Fed channel) AC50, cells fed with added oleic acid

SMILES	cell number change	AC50 [1]	AC50 [2]
CCC(C)(C)NC(=O)C(c1cccs1)N(C(=O)c1ccn[nH]1)c1ccccc1 (centres undefined)	30.1%	25.9 µM [rising, single point]	
O=C(CCNc1ccccc1)c1ccc2c(c1)OCO2	-11.9%		2.06 µM [rising, partial curve]
COc1ccc2c(c1)cc(C(=O)N[C@H](C(=O)N1CCC(C(=O)O)CC1)C(C)C)n2C	-0.236%		18.4 µM [rising, single point]
COc1ccc(NC(=S)NCCNC(C)=O)cc1	-38.9%	20 µM [falling, single point]	
Cc1ccc(S(=O)(=O)NCCSc2nnnn2-c2cc(C)ccc2C)cc1	-8.71%		4.11 µM [rising, partial curve]
Cc1[nH]c2ccccc2c1C(=O)C(=O)N1CC(C)OC(C)C1 (centres undefined)	25.6%		
COc1cc(N2C(=O)CSC2=S)cc(OC)c1OC	-5.56%		
CC(C)NC(=O)COC(=O)Cn1[nH]c(=O)c2ccccc2c1=O	-1.98%	0.0517 µM [falling, full curve, poor fit]	16.4 µM [falling, partial curve]
O=C(Cc1cccs1)N1CCN(S(=O)(=O)c2ccc(Br)cc2)CC1	30.6%	14.6 µM [rising, partial curve, poor fit]	5.8 µM [falling, full curve]
COc1cc(OC)c(C(=O)OCC(=O)NCC2CCCCC2)cc1OC			4.11 µM [rising, partial curve]
CS(=O)(=O)NNC(=O)c1cc2cc3ccccc3nc2s1	20%		3.66 µM [rising, full curve]
COc1ccccc1-c1ccc(SCc2cccc(F)c2)nn1	96%	18.4 µM [rising, partial curve]	
CC12CCC(=O)N1C(C(=O)Nc1ccccc1N1CCCCC1)CS2 (centres undefined)	-4.95%		0.184 µM [falling, full curve, poor fit]
Cc1ccc(CNCC2CCCO2)s1 (centres undefined)		1.84 µM [rising, partial curve]	1.03 µM [rising, partial curve]
CCc1cc2c(=O)[nH]c(Cc3ccc(OC)cc3)nc2s1	-2.36%		0.13 µM [rising, partial curve, poor fit]
Cn1c(=O)oc2cc(S(=O)(=O)NCCC(=O)N3CCN(c4ccccc4)CC3)ccc21	-4.25%		6.51 µM [rising, single point]
O=C(O)c1cccc2c1C(=O)c1ccc(-c3ccc(F)cc3OCc3ccccc3)cc1S2(=O)=O	-33.1%	20.6 µM [falling, single point]	0.116 µM [falling, single point]
Cc1cc(OC(C)C)nc(-c2ccccc2O)n1		6.51 µM [rising, single point]	0.116 µM [falling, full curve, poor fit]
O=C(COC(=O)C1=COCCO1)Nc1ccc(F)c(F)c1	0.245%		25.9 µM [falling, partial curve, poor fit]

Just AC50 [1] and cell number change, for some of the entries so far:
SMILES | AC50 [1] | cell number change
COc1cc(N2C(=O)CSC2=S)cc(OC)c1OC |  | -5.56%
CC(C)NC(=O)COC(=O)Cn1[nH]c(=O)c2ccccc2c1=O | 0.0517 µM [falling, full curve, poor fit] | -1.98%
O=C(Cc1cccs1)N1CCN(S(=O)(=O)c2ccc(Br)cc2)CC1 | 14.6 µM [rising, partial curve, poor fit] | 30.6%

(cont.)

SMILES	cell number change	AC50 [1]	AC50 [2]
O=C(CSc1nnc2ccccn12)NC(=O)c1ccccc1	-32.4%	1.3 µM [falling, full curve]	1.46 µM [falling, full curve]
Cc1ccccc1NC(=O)Nc1nnc(CC(=O)NCc2ccccc2)s1	13.5%	6.51 µM [rising, single point]	1.03 µM [falling, full curve, poor fit]
Cc1ccc(Cn2ccc(NC(=O)c3cc(-c4ccc(F)cc4)on3)n2)cc1	-30.5%	29.1 µM [falling, single point]	
Cc1cc(C=O)c(C)n1-c1ccc(Cl)c(C(=O)O)c1	-15.7%		0.058 µM [falling, single point]
COCC(=O)NNC(=S)Nc1cccc(C)c1C	-7.02%	0.082 µM [falling, full curve]	0.517 µM [falling, full curve]
CC(C)(C)c1ccc(OCCC(=O)OCC(=O)NCc2ccccc2)cc1	-41.2%	29.1 µM [falling, single point]	23.1 µM [falling, single point]
N#CC1=C2SCN(Cc3ccccc3)CN2C(=O)CC1c1cccs1 (centres undefined)	19%		0.651 µM [falling, full curve]
C=CCNC(=O)CN(Cc1ccccc1)S(=O)(=O)c1ccc(C)cc1			20.6 µM [falling, partial curve]
CC(C)(C)C1(O)CC(C(F)(F)F)=NN1C(=O)Cc1ccc([N+](=O)[O-])cc1 (centres undefined)	-49.7%	20.6 µM [falling, single point]	23.1 µM [falling, single point]
CCSc1cc(N2CCCC2)nc(-c2ccc(C)cc2)n1	4.73%		4.61 µM [rising, full curve, poor fit]
CCCOc1ccc(-c2nnn(CC(=O)N3CCC(C)CC3)n2)cc1	58.5%	2.91 µM [rising, partial curve]	0.164 µM [rising, full curve]
CCCc1cc(=O)[nH]c(SCC(=O)c2cc(C)n(-c3cc(C)on3)c2C)n1	9.62%		
CCOc1ccc2nc(NCCO)[nH]c2c1	-11.9%	7.31 µM [falling, partial curve, poor fit]	2.91 µM [falling, partial curve, poor fit]
O=C(CCCN=C1NS(=O)(=O)c2ccccc21)OCC(=O)c1ccc(F)c(F)c1	-18.2%	1.64 µM [falling, full curve, poor fit]	
Cc1cc(C)c(C)c(OCCn2ccnc2)c1	-17.7%		
COCCOC(=O)C1=C(C)NC(=O)N(C(C)=O)C1c1ccc(Cl)cc1 (centres undefined)	30.2%		
Cc1ccc(C)c(N2CCN(CCCNC(=O)Cn3c(=O)c4cccn4c4cccnc43)CC2)c1	-0.612%		18.4 µM [rising, partial curve]
O=C(O)C1CC(=O)N(Cc2cccs2)C1 (centres undefined)	-22.5%		
N#Cc1c(NC(=O)C2CC(Cl)=CCC2C(=O)O)sc2c1CCCC2 (centres undefined)	2.03%	0.58 µM [falling, single point]	0.366 µM [falling, single point]
